# Measurements as given in publication PMC3707915.
# Protein sequences, listed by entry. Tags and fused reporters are not part of them. Lines headed by an entry give the natural chain unless they say otherwise; changes in a name come on top.
# UniProt P39938: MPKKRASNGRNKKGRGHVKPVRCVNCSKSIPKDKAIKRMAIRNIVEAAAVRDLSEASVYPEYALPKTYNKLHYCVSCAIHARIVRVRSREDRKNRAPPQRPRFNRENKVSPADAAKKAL
# UniProt P53742: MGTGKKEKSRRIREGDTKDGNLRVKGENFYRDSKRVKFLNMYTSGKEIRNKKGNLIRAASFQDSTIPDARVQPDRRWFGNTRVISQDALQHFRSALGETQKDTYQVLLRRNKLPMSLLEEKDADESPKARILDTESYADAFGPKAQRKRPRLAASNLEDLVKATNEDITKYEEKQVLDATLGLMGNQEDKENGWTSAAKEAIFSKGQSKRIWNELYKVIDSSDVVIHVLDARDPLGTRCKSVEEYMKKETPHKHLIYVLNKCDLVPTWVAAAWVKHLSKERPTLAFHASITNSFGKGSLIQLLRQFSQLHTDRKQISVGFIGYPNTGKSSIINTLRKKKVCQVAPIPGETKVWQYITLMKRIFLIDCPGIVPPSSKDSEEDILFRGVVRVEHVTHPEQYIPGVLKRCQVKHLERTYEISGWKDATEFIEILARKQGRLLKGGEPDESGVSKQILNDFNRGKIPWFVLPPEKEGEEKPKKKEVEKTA
# T1: Arx1-TAP (S. cerevisiae) (UniProt Q03862)
# T1 sequence: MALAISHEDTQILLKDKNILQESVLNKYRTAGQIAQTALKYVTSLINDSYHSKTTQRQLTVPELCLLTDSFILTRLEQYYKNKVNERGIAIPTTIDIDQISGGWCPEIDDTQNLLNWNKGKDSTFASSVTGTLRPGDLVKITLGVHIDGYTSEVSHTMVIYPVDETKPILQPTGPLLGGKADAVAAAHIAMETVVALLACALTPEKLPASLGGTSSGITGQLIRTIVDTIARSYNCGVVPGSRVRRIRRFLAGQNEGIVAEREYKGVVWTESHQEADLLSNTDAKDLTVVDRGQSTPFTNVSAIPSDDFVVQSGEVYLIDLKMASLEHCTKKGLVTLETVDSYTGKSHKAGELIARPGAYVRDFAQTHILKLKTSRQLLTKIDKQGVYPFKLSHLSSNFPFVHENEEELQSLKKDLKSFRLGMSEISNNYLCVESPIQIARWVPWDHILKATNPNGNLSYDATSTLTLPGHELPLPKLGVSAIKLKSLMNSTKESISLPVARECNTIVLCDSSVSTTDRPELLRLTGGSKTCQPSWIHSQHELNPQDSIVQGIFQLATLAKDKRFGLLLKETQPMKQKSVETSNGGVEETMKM
# T2: Rsa4-TAP (S. cerevisiae) (UniProt P25382)
# T2 sequence: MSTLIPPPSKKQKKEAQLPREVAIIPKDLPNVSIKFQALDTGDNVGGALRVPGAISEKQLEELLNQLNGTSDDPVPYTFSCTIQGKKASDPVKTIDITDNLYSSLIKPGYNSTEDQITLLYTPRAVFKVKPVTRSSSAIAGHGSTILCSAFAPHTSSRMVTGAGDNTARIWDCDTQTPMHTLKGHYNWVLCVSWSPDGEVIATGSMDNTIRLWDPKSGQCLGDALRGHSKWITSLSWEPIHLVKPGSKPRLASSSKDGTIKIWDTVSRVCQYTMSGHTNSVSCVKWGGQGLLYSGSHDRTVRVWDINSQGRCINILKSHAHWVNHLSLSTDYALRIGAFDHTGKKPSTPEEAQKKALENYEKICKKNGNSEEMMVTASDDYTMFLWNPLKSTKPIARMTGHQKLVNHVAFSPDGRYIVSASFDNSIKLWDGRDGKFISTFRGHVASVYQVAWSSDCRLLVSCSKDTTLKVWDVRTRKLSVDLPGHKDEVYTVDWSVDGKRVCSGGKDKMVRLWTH
# T3: Nog1-TAP (S. cerevisiae) (UniProt Q02892)
# T3 sequence: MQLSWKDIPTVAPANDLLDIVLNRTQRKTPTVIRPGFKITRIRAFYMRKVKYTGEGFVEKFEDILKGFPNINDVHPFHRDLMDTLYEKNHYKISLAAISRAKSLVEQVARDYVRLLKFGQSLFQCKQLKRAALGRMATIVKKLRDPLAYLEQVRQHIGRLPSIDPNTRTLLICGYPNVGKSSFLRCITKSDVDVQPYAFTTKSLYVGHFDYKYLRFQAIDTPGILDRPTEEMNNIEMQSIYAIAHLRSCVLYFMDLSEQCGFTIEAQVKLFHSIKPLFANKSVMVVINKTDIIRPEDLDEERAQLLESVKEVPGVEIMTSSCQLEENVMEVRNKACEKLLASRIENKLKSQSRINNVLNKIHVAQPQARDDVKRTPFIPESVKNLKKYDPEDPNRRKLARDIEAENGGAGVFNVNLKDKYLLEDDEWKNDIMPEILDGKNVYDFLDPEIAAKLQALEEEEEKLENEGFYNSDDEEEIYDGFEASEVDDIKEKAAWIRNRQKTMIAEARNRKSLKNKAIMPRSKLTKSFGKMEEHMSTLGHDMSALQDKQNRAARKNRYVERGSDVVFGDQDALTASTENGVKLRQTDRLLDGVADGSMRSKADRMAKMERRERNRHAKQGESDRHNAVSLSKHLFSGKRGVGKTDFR
# Tests used:
# [1] = target: rpS26-FLAG (S. cerevisiae) (UniProt P39938); experiment: affinity purification with mass spectrometry; rpS26-FLAG and associated 80S ribosomes purified in one step from total yeast cellular extract on anti-FLAG M2 sepharose beads, 1 h at 4°C, MB buffer with 0.5% Triton X-100 and 0.1% Tween; eluates compared pair wise with LSU precursor particles by semi-quantitative LC-MS/MS with iTRAQ reagents
# [2] = target: T1, Arx1-TAP (S. cerevisiae); experiment: affinity purification with mass spectrometry; TAP-tagged LSU biogenesis factor and associated pre-ribosomal particles purified in one step from total yeast cellular extract on rabbit IgG coupled magnetic beads, 1 h at 4°C, MB buffer (20 mM Tris HCl pH 8, 200 or 300 mM KCl, 5 mM MgOAc) with 0.5% Triton X-100 and 0.1% Tween 20; eluates compared pair wise by semi-quantitative LC-MS/MS with iTRAQ reagents; for Nog1-, Nog2- and Rsa4-TAP wild type against strains in which RPL25, RPL2, RPL43 or RPL21 was shut down for 4 h in glucose
# [3] = target: T2, Rsa4-TAP (S. cerevisiae); experiment: as above
# [4] = target: T3, Nog1-TAP (S. cerevisiae); experiment: as above
# [5] = target: Nog2-TAP (S. cerevisiae) (UniProt P53742); experiment: as above
binding [1],binding [2],binding [3],binding [4],binding [5],Binder
binds,binds,–,–,–,"phospho-stalk protein 1A (protein, UniProt P05318 1-106) MSTESALSYAALILADSEIEISSEKLLTLTNAANVPVENIWADIFAKALDGQNLKDLLVNFSAGAAAPAGVAGGVAGGEAGEAEAEKEEEEAKEESDDDMGFGLFD"
–,–,binds,–,–,"Nop7 (protein, UniProt P53261 1-605) MRIKKKNTRGNARNFITRSQAVRKLQVSLADFRRLCIFKGIYPREPRNKKKANKGSTAPTTFYYAKDIQYLMHEPVLAKFREHKTFARKLTRALGRGEVSSAKRLEENRDSYTLDHIIKERYPSFPDAIRDIDDALNMLFLFSNLPSTNQVSSKIINDAQKICNQWLAYVAKERLVRKVFVSIKGVYYQANIKGEEVRWLVPFKFPENIPSDVDFRIMLTFLEFYSTLLHFVLYKLYTDSGLIYPPKLDLKKDKIISGLSSYILESRQEDSLLKLDPTEIEEDVKVESLDASTLKSALNADEANTDETEKEEEQEKKQEKEQEKEQNEETELDTFEDNNKNKGDILIQPSKYDSPVASLFSAFVFYVSREVPIDILEFLILSCGGNVISEAAMDQIENKKDIDMSKVTHQIVDRPVLKNKVAGRTYIQPQWIFDCINKGELVPANKYLPGEALPPHLSPWGDAIGYDPTAPVEEGEEEESESESESEDQVEEEDQEVVAGEEDDDDDEELQAQKELELEAQGIKYSETSEADKDVNKSKNKKRKVDEEEEEKKLKMIMMSNKQKKLYKKMKYSNAKKEEQAENLKKKKKQIAKQKAKLNKLDSKK"

# More lines, now with the values behind:
Binder,binding [1],binding [2],binding [3],binding [4],binding [5]
"phospho-stalk protein 1B (protein, UniProt P10622 1-106) MSDSIISFAAFILADAGLEITSDNLLTITKAAGANVDNVWADVYAKALEGKDLKEILSGFHNAGPVAGAGAASGAAAAGGDAAAEEEKEEEAAEESDDDMGFGLFD",binds,binds,–,–,–
"Nmd3 (protein, UniProt P38861 1-518) MEFTPIDPHQHQNAATLLCCNCGTPIDGSTGLVMCYDCIKLTVDITQGIPREANISFCRNCERFLQPPGQWIRAELESRELLAICLRRLKGLTKVRLVDASFIWTEPHSRRIRIKLTVQGEAMTNTIIQQTFEVEYIVIAMQCPDCARSYTTNTWRATVQIRQKVPHKRTFLFLEQLILKHNAHVDTISISEAKDGLDFFYAQKNHAVKMIDFLNAVVPIKHKKSEELISQDTHTGASTYKFSYSVEIVPICKDDLVVLPKKLAKSMGNISQFVLCSKISNTVQFMDPTTLQTADLSPSVYWRAPFNALADVTQLVEFIVLDVDSTGISRGNRVLADITVARTSDLGVNDQVYYVRSHLGGICHAGDSVMGYFIANSNYNSDLFDGLNIDYVPDVVLVKKLYQRKSKKSRHWKLKRMAKEHKDIDASLDYNSRAQKQEMERAEKDYELFLQELEEDAELRQSVNLYKNREANVPPEEHEMDEDEDEDAPQINIDELLDELDEMTLEDGVENTPVESQQ",–,binds,–,–,–
"phospho-stalk protein 2A (protein, UniProt P05319 1-106) MKYLAAYLLLNAAGNTPDATKIKAILESVGIEIEDEKVSSVLSALEGKSVDELITEGNEKLAAVPAAGPASAGGAAAASGDAAAEEEKEEEAAEESDDDMGFGLFD",binds,binds,–,–,–
"Nop53 (protein, UniProt Q12080 1-455) MAPTNLTKKPSQYKQSSRKGKKAWRKNIDLSDVEQYMEKKIDHEITHGTSDITSLQNDALFHVDVEGDEILKNKLIKRKQIKKVLKSKEILDAVKTNSKIAALNHHKNSSGNPNKIQGVSKHELKKLMALAGRVHGESKIKNRVAKDGLVKTTAGDLWGEESNSKKQKVKLPSGIKLDVEKKDQIPEELLKKSTTSWSTASVRPSTLDIEPIAVKEFTEIPHAGKSYNPNNKAWSELINKEYKEEKAREDERIALEKYKERIRHLMETLDDNEEEESSSNEEEEEEEEENENENESTQCSGSDKEIKLSINKPVKNKKKTKYQRNKAKRHEEKVKLQQELKELRQRVKDLEEVINSEETEILSAIESDSNKVKKSKKNKKHKLGTKYSVIDERLEIKFSDELSDSLRKLKPEGNLLYDTVRKLQSSGKVETRVPVRKGRKYKQKITEKWTHKDFK",–,–,binds,binds,binds
"Alb1 (protein, UniProt P47019 1-175) MPSKNSINRPKLTSNLHHKVHSLNKKRAQRERAGLLKPARSSVNSKSGEIKSVALDLYFQNKKNESQNSTAVTLQNASSSPASITTRTLSKKRAKKIERNLKYATQRKLLVDASAKLEDEMDIDLDGGKKVKENEKKSSLTLVKEALWSVIDDTASQGLIIENGQGTTLGGPFFP",–,binds,–,–,–
"phospho-stalk protein 2B (protein, UniProt P02400 1-110) MKYLAAYLLLVQGGNAAPSAADIKAVVESVGAEVDEARINELLSSLEGKGSLEEIIAEGQKKFATVPTGGASSAAAGAAGAAAGGDAAEEEKEEEAKEESDDDMGFGLFD",binds,binds,–,–,–

# These are yes or no findings as the source states them, for the method shown. In cells and extracts the contact can be indirect. Here binding means that the protein was enriched with, or labelled near, the bait; the list need not be complete.
